Measured values from publication PMC2810291, “Identification and characterization of endonuclein binding proteins: evidence of modulatory effects on signal transduction and chaperone activity” (BMC Biochemistry, 2009).
Results are given in words; binding and its absence hold for the method and conditions named. Some entries that bind do so weakly or less than the wild type.

Sequences of proteins named here, by UniProt entry; tags and fusion partners are left off. Residues count along the entry.
UniProt G3I8R9, residues 19-654: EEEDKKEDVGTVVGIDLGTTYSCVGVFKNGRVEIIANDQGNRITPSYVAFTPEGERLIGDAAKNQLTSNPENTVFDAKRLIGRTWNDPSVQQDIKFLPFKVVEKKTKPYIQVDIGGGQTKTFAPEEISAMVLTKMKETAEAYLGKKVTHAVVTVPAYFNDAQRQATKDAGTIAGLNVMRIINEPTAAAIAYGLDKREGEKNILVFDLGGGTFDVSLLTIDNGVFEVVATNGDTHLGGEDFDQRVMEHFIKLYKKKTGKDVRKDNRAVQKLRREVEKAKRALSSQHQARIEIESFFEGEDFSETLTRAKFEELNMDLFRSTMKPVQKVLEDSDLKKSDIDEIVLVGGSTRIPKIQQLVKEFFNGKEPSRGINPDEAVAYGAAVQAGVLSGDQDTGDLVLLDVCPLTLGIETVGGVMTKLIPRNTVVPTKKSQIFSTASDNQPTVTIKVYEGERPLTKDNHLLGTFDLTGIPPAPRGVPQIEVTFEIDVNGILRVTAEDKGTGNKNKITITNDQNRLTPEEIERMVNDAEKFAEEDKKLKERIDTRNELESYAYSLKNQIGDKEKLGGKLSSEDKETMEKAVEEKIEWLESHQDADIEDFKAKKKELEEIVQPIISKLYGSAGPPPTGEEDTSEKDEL

Target: T1, recombinant endonuclein (human, UniProt Q13610 2-501)
T1 construct: human endonuclein, coding region Asn2-Ser501 of the 2309.2 cDNA, in the vector pT7-PL; also called IEF SSP 9502; PWP1 (yeast homologue's name)
Assay: SPR; BIAcore 2000; endonuclein amine-coupled to a CM5 chip (3302 RU); analytes at 1 μM or 5 μM in 10 mM Hepes, 150 mM NaCl, 5 mM CaCl2, 1 mM EGTA, pH 7.4, 0.005% P20; control flow channel subtracted; both purified

binding: binds
Substance: recombinant hamster BiP/Grp78 (from UniProt G3I8R9 19-654)
